The record followed here is article PMC9723622.

These are yes or no findings as the source states them, for the method shown. Binding seen in cells or lysates may run through a third protein. Some binding calls cover weakened binding; strength is not graded here. Sequences can lack the tags named with a protein.

The target in this assay is endogenous PARP1 (human (endogenous in U2OS)), P09874. Nature of the assay: proximity ligation; Duolink PLA with antibodies to the endogenous proteins in fixed, permeabilised cells; DMSO or hydroxyurea 2 or 18 h; control, TPX2 knock-down. The note with it: remark: other sources report otherwise.

B1: Histone PARylation Factor (HPF1), endogenous, Q9NWY4 1-346 (protein)
chain: MVGGGGKRRPGGEGPQCEKTTDVKKSKFCEADVSSDLRKEVENHYKLSLPEDFYHFWKFCEELDPEKPSDSLSASLGLQLVGPYDILAGKHKTKKKSTGLNFNLHWRFYYDPPEFQTIIIGDNKTQYHMGYFRDSPDEFPVYVGINEAKKNCIIVPNGDNVFAAVKLFLTKKLREITDKKKINLLKNIDEKLTEAARELGYSLEQRTVKMKQRDKKVVTKTFHGAGLVVPVDKNDVGYRELPETDADLKRICKTIVEAASDEERLKAFAPIQEMMTFVQFANDECDYGMGLELGMDLFCYGSHYFHKVAGQLLPLAYNLLKRNLFAEIIEEHLANRSQENIDQLAA
As for B1, the binding result is listed as “binds”.
